Paper PMC7139404
Results are given in words; binding and its absence hold for the method and conditions named. In cells and extracts the contact can be indirect. Some entries that bind do so weakly or less than the wild type. Tags and fused reporters may be left off the sequences shown.

T1: ELONGATED HYPOCOTYL 5 (HY5), HA-tagged (Arabidopsis thaliana) (UniProt O24646)
T1 sequence: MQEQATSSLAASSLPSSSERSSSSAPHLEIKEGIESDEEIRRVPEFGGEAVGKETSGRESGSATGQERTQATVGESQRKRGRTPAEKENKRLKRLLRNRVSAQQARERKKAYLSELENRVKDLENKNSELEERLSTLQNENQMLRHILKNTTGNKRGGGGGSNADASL


target: T1, ELONGATED HYPOCOTYL 5 (HY5), HA-tagged (Arabidopsis thaliana); assay: co-IP; His-HY5-HA and His-bZIP-FLAG co-synthesized in wheat germ extract; crude extract pre-washed with Dynabeads protein G, then immunoprecipitated with anti-HA antibody on Dynabeads Protein G, 4 °C, 2 h; binding buffer 10 mM Tris-HCl pH7.5, 50 mM KCl, 5 mM MgCl2, 1 mM DTT, 0.05% Triton-X100, 2.5% glycerol; Western blot with anti-HA and anti-FLAG

| binding | Binder |
| --- | --- |
| binds | G-box binding factor 3 (GBF3), FLAG-tagged (protein, UniProt P42776 1-382) MGNSSEEPKPPTKSDKPSSPPVDQTNVHVYPDWAAMQAYYGPRVAMPPYYNSAMAASGHPPPPYMWNPQHMMSPYGAPYAAVYPHGGGVYAHPGIPMGSLPQGQKDPPLTTPGTLLSIDTPTKSTGNTDNGLMKKLKEFDGLAMSLGNGNPENGADEHKRSRNSSETDGSTDGSDGNTTGADEPKLKRSREGTPTKDGKQLVQASSFHSVSPSSGDTGVKLIQGSGAILSPGVSANSNPFMSQSLAMVPPETWLQNERELKRERRKQSNRESARRSRLRKQAETEELARKVEALTAENMALRSELNQLNEKSDKLRGANATLLDKLKCSEPEKRVPANMLSRVKNSGAGDKNKNQGDNDSNSTSKLHQLLDTKPRAKAVAAG |
| binds | G-box binding factor 2 (GBF2), FLAG-tagged (protein, UniProt P42775 1-360) MGSNEEGNPTNNSDKPSQAAAPEQSNVHVYHHDWAAMQAYYGPRVGIPQYYNSNLAPGHAPPPYMWASPSPMMAPYGAPYPPFCPPGGVYAHPGVQMGSQPQGPVSQSASGVTTPLTIDAPANSAGNSDHGFMKKLKEFDGLAMSISNNKVGSAEHSSSEHRSSQSSENDGSSNGSDGNTTGGEQSRRKRRQQRSPSTGERPSSQNSLPLRGENEKPDVTMGTPVMPTAMSFQNSAGMNGVPQPWNEKEVKREKRKQSNRESARRSRLRKQAETEQLSVKVDALVAENMSLRSKLGQLNNESEKLRLENEAILDQLKAQATGKTENLISRVDKNNSVSGSKTVQHQLLNASPITDPVAAS |
| binds | HY5 HOMOLOG (HYH), FLAG-tagged (protein, UniProt Q8W191 1-149) MSLQRPNGNSSSSSSHKKHKTEESDEELLMVPDMEAAGSTCVLSSSADDGVNNPELDQTQNGVSTAKRRRGRNPVDKEYRSLKRLLRNRVSAQQARERKKVYVSDLESRANELQNNNDQLEEKISTLTNENTMLRKMLINTRPKTDDNH |
